Results published in article PMC8632500, “Identification of Conserved and Divergent Strigolactone Receptors in Sugarcane Reveals a Key Residue Crucial for Plant Branching Control” (Frontiers in Plant Science, 2021).
These are yes or no findings as the source states them, for the method shown. Binding can be weak; no strength is given. Where a sequence is shown, tags or fusion partners need not be part of it.

Biological target: BD-SsD14bP304R (Saccharum spontaneum)
Assay: two-hybrid; yeast AH109; D14 proteins as GAL4-BD baits, MAX2/D3 and SMXL7/D53 as GAL4-AD preys; serial 10-fold dilutions spotted on selective medium (SD/-Leu/-Trp/-His/-Ala as printed) with 5 μM rac-GR24 or DMSO; 4 days at 30°C

B1: AD-AtMAX2 (Arabidopsis thaliana MORE AXILLARY GROWTH2 fused to GAL4-AD) (protein, UniProt Q9SIM9 1-693)
chain: MASTTLSDLPDVILSTISSLVSDSRARNSLSLVSHKFLALERSTRSHLTIRGNARDLSLVPDCFRSISHLDLSFLSPWGHTLLASLPIDHQNLLALRLKFCFPFVESLNVYTRSPSSLELLLPQWPRIRHIKLLRWHQRASQIPTGGDFVPIFEHCGGFLESLDLSNFYHWTEDLPPVLLRYADVAARLTRLDLLTASFTEGYKSSEIVSITKSCPNLKTFRVACTFDPRYFEFVGDETLSAVATSSPKLTLLHMVDTASLANPRAIPGTEAGDSAVTAGTLIEVFSGLPNLEELVLDVGKDVKHSGVALEALNSKCKKLRVLKLGQFQGVCSATEWRRLDGVALCGGLQSLSIKNSGDLTDMGLVAIGRGCCKLTTFEIQGCENVTVDGLRTMVSLRSKTLTDVRISCCKNLDTAASLKAIEPICDRIKRLHIDCVWSGSEDEEVEGRVETSEADHEEEDDGYERSQKRCKYSFEEEHCSTSDVNGFCSEDRVWEKLEYLSLWINVGEFLTPLPMTGLDDCPNLEEIRIKIEGDCRGKRRPAEPEFGLSCLALYPKLSKMQLDCGDTIGFALTAPPMQMDLSLWERFFLTGIGSLSLSELDYWPPQDRDVNQRSLSLPGAGLLQECLTLRKLFIHGTAHEHFMNFLLRIPNLRDVQLRADYYPAPENDMSTEMRVGSCSRFEDQLNSRNIID
- binding: binds
